# From the supplement of paper PMC4604168 (melanoma cell lines)
# The other results are listed elsewhere or left out. Repeats are few or missing, and single values can be far off.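 Imaging used 1,536-well plates; nuclei positive for cleaved PARP by antibody were divided by total DNA-stained nuclei to yield the apoptosis fraction. Doses for screening kept most cells viable, and cell lines differ markedly in resting and induced cleaved-PARP levels.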
# System: A101D
# Assay: cleaved PARP positive nuclei fraction relative to DMSO control; melanoma cells; higher = more apoptosis
# Settings: library dose: low library concentration; 72 h
row,SMILES,cleaved PARP positive nuclei fraction [%]
1,"O=C(/C=C/c1cccnc1)NCCCCC1CCN(C(=O)c2ccccc2)CC1 + CC1(C)NC(=O)N(c2ccc([N+](=O)[O-])c(C(F)(F)F)c2)C1=O [nilutamide] (first compound 0.01 µM, partner dose 1 µM)",83.7
2,"Cc1ccc(Nc2nccc(N(C)c3ccc4c(C)n(C)nc4c3)n2)cc1S(N)(=O)=O [Pazopanib] + C[C@@H]1CCN(C(=O)CC#N)C[C@@H]1N(C)c1ncnc2[nH]ccc12 [CP690550] (first compound 0.4 µM, partner dose 1 µM)",46.2
3,"O=C(Nc1cc(C(F)(F)F)cc(C(F)(F)F)c1)c1cc(Cl)ccc1O + Cc1cc(N2CCOCC2)cc2[nH]c(-c3c(NC[C@@H](O)c4cccc(Cl)c4)cc[nH]c3=O)nc12 [BMS536924] (first compound 0.016 µM, partner dose 0.2 µM)",150
4,"Cc1cn(-c2cc(NC(=O)c3ccc(C)c(Nc4nccc(-c5cccnc5)n4)c3)cc(C(F)(F)F)c2)cn1 [nilotinib] + CO[C@@H]1[C@H](N(C)C(=O)c2ccccc2)C[C@H]2O[C@]1(C)n1c3ccccc3c3c4c(c5c6ccccc6n2c5c31)C(=O)NC4 [Midostaurin] (first compound 0.2 µM, partner dose 0.08 µM)",185
5,"O=C(Nc1cc(C(F)(F)F)cc(C(F)(F)F)c1)c1cc(Cl)ccc1O + NC(=O)Nc1cc(-c2cccc(F)c2)sc1C(=O)N[C@H]1CCCNC1 [AZD7762] (first compound 0.016 µM, partner dose 0.02 µM)",46.3
